# Test results reported in the supplement of paper PMC10032668.
# Sequences of proteins named here, by UniProt entry; tags and fusion partners are left off.
# NUTF2, P61970, UniProt P61970, whole entry: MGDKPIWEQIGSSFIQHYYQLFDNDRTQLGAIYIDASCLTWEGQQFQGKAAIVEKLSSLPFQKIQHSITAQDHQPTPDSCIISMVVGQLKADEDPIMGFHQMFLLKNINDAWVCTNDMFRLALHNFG
# PCBP2, Q15366, UniProt Q15366, whole entry: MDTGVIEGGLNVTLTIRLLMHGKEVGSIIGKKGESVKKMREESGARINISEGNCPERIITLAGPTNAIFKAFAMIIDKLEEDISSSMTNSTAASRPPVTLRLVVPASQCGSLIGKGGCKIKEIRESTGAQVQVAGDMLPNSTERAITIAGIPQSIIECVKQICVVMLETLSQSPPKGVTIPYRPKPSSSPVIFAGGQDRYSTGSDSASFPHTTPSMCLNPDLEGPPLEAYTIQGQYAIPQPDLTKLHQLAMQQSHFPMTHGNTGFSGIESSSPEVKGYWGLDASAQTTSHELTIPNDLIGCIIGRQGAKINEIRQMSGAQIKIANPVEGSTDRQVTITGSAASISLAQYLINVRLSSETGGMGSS
# CLPP, Q16740, UniProt Q16740, whole entry: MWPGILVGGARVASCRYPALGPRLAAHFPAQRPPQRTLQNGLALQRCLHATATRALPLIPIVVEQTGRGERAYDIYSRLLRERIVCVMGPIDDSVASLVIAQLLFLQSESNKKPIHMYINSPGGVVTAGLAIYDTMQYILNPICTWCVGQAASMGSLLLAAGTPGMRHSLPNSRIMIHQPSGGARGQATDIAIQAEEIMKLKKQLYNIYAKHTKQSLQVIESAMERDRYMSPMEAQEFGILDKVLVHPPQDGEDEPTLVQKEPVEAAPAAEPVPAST
# EIF4G3, O43432, UniProt O43432, whole entry: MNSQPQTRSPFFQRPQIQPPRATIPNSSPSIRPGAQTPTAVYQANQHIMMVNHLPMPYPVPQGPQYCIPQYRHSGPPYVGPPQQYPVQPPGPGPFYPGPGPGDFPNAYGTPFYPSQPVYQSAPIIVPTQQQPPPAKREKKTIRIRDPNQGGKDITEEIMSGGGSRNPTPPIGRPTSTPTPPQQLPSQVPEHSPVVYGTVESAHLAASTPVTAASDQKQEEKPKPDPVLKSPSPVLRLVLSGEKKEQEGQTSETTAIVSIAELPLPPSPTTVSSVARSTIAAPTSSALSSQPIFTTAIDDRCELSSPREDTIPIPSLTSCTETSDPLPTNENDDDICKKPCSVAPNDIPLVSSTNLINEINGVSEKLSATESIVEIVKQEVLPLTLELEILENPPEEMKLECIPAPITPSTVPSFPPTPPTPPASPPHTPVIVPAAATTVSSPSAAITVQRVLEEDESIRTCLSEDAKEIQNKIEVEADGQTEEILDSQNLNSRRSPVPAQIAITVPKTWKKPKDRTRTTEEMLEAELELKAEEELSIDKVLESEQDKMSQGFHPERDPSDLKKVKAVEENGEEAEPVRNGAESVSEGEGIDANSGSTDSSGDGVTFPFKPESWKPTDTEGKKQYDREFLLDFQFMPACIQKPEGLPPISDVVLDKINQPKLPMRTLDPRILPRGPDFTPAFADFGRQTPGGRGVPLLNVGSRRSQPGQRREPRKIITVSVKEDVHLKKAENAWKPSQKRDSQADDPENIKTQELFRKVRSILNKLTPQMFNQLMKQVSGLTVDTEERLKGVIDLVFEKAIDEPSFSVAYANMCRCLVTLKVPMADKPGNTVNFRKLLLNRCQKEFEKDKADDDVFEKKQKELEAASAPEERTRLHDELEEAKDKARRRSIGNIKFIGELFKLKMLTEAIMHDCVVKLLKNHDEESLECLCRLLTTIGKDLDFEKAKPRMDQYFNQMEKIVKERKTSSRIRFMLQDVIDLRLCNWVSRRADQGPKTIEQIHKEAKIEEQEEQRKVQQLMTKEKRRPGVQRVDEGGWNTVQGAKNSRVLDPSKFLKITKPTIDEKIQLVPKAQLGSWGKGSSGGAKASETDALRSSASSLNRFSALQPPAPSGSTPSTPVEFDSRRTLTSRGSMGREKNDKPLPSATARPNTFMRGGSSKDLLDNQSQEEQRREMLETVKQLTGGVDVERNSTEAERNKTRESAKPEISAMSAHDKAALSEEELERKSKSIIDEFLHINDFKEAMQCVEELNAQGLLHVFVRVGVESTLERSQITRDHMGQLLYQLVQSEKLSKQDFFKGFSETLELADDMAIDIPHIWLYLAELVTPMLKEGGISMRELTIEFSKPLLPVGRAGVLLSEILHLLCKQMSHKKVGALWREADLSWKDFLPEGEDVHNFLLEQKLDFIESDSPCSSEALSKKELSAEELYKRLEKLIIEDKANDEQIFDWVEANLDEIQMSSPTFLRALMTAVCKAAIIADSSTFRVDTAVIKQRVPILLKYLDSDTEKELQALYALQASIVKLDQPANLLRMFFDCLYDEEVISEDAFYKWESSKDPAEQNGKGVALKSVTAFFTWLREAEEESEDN
# H2AFY, O75367, UniProt O75367, whole entry: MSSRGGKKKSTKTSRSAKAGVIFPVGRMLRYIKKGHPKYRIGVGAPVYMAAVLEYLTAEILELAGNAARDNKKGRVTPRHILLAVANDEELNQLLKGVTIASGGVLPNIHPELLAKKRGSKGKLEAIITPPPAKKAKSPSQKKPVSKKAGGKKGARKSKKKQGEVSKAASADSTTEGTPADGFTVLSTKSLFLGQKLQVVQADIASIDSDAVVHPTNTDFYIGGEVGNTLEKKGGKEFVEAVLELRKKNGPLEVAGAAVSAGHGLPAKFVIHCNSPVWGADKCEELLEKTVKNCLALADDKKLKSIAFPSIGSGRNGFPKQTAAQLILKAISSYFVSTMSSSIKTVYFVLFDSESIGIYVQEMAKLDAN
# The other results are listed elsewhere or left out. The list holds hits alone, and they repeat only in part.
# Experiments:
# Test in all cases: PRISMA enrichment of interactor (LFQ) in peptide spot vs all other peptide spots (log2 fold change); higher = stronger / more specific binding of the interactor to the peptide
# CHMP2A, O43633 = biological target: CHMP2A, O43633
# Protocol: (§1)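 PRISMA: 15-aa overlapping tiles (offset 8 aa) of 60 microproteins, plus SOS1/GLUT1 control peptides, were spot-synthesized on cellulose membranes in triplicate. Membranes were incubated with benzonase-treated HEK293T lysate, and bound proteins were identified by LC-MS/MS with LFQ. Enrichment is the log2 fold change of each protein in one spot versus all other spots. Only interactors passing the significance cutoff are listed.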
# GATAD2A, Q86YP4 = biological target: GATAD2A, Q86YP4
# Protocol: as §1
# METTL26, Q96S19 = biological target: METTL26, Q96S19
# Protocol: as §1
# NUTF2, P61970 = biological target: NUTF2, P61970
# Protocol: as §1
# TSPYL1, Q9H0U9 = biological target: TSPYL1, Q9H0U9
# Protocol: as §1
# CNN3, Q15417 = biological target: CNN3, Q15417
# Protocol: as §1
# NUP62, P37198 = biological target: NUP62, P37198
# Protocol: as §1
# ORMDL1, Q9P0S3 = biological target: ORMDL1, Q9P0S3
# Protocol: as §1
# PCBP2, Q15366 = biological target: PCBP2, Q15366
# Protocol: as §1
# RTTN, Q86VV8 = biological target: RTTN, Q86VV8
# Protocol: as §1
# CKAP2L, Q8IYA6 = biological target: CKAP2L, Q8IYA6
# Protocol: as §1
# CLPP, Q16740 = biological target: CLPP, Q16740
# Protocol: as §1
# CNPY2, Q9Y2B0 = biological target: CNPY2, Q9Y2B0
# Protocol: as §1
# CRABP2, P29373 = biological target: CRABP2, P29373
# Protocol: as §1
# CTPS1, P17812 = biological target: CTPS1, P17812
# Protocol: as §1
# DERPC, P0CG12 = biological target: DERPC, P0CG12
# Protocol: as §1
# EIF4G3, O43432 = biological target: EIF4G3, O43432
# Protocol: as §1
# GLO1, Q04760 = biological target: GLO1, Q04760
# Protocol: as §1
# GRB2, P62993 = biological target: GRB2, P62993
# Protocol: as §1
# H2AFV, Q71UI9 = biological target: H2AFV, Q71UI9
# Protocol: as §1
# HERC5, Q9UII4 = biological target: HERC5, Q9UII4
# Protocol: as §1
# MRPS7, Q9Y2R9 = biological target: MRPS7, Q9Y2R9
# Protocol: as §1
# MYCBP2, O75592 = biological target: MYCBP2, O75592
# Protocol: as §1
# SH3GL1, Q99961 = biological target: SH3GL1, Q99961
# Protocol: as §1
# YWHAG, P61981 = biological target: YWHAG, P61981
# Protocol: as §1
# ZC2HC1A, Q96GY0 = biological target: ZC2HC1A, Q96GY0
# Protocol: as §1
# CHPT1, Q8WUD6 = biological target: CHPT1, Q8WUD6
# Protocol: as §1
# DUS3L, Q96G46 = biological target: DUS3L, Q96G46
# Protocol: as §1
# H2AFY, O75367 = biological target: H2AFY, O75367
# Protocol: as §1
# HAGH, Q16775 = biological target: HAGH, Q16775
# Protocol: as §1
# MRPL17, Q9NRX2 = biological target: MRPL17, Q9NRX2
# Protocol: as §1
# MRPS6, P82932 = biological target: MRPS6, P82932
# Protocol: as §1
# PGK1, P00558 = biological target: PGK1, P00558
# Protocol: as §1
# RCN2, Q14257 = biological target: RCN2, Q14257
# Protocol: as §1
# RIOK2, Q9BVS4 = biological target: RIOK2, Q9BVS4
# Protocol: as §1
# SARDH, Q9UL12 = biological target: SARDH, Q9UL12
# Protocol: as §1
# SPCS2, Q15005 = biological target: SPCS2, Q15005
# Protocol: as §1
# VPS52, Q8N1B4 = biological target: VPS52, Q8N1B4
# Protocol: as §1
binder,measurement,setting,value
MLVATGQCSRCFMFT,PRISMA enrichment of interactor (log2),"CHMP2A, O43633",4.29
same,PRISMA enrichment of interactor (log2),"GATAD2A, Q86YP4",8.85
same,PRISMA enrichment of interactor (log2),"METTL26, Q96S19",4.87
same,PRISMA enrichment of interactor (log2),"NUTF2, P61970",3.92
same,PRISMA enrichment of interactor (log2),"TSPYL1, Q9H0U9",5.19
CSRCFMFTFSTFSFN,PRISMA enrichment of interactor (log2),"CNN3, Q15417",4.73
same,PRISMA enrichment of interactor (log2),"NUP62, P37198",3.75
same,PRISMA enrichment of interactor (log2),"ORMDL1, Q9P0S3",4.15
same,PRISMA enrichment of interactor (log2),"PCBP2, Q15366",5.13
same,PRISMA enrichment of interactor (log2),"RTTN, Q86VV8",4.6
MARPPPLPGLVGRRN [TUG1],PRISMA enrichment of interactor (log2),"CKAP2L, Q8IYA6",3.96
same,PRISMA enrichment of interactor (log2),"CLPP, Q16740",4.52
same,PRISMA enrichment of interactor (log2),"CNPY2, Q9Y2B0",4.57
same,PRISMA enrichment of interactor (log2),"CRABP2, P29373",3.74
same,PRISMA enrichment of interactor (log2),"CTPS1, P17812",6.57
same,PRISMA enrichment of interactor (log2),"DERPC, P0CG12",4.13
same,PRISMA enrichment of interactor (log2),"EIF4G3, O43432",4.56
same,PRISMA enrichment of interactor (log2),"GLO1, Q04760",4.89
same,PRISMA enrichment of interactor (log2),"GRB2, P62993",5.49
same,PRISMA enrichment of interactor (log2),"H2AFV, Q71UI9",5.73
same,PRISMA enrichment of interactor (log2),"HERC5, Q9UII4",5.84
same,PRISMA enrichment of interactor (log2),"MRPS7, Q9Y2R9",5.83
same,PRISMA enrichment of interactor (log2),"MYCBP2, O75592",4.8
same,PRISMA enrichment of interactor (log2),"SH3GL1, Q99961",4.78
same,PRISMA enrichment of interactor (log2),"YWHAG, P61981",5.31
same,PRISMA enrichment of interactor (log2),"ZC2HC1A, Q96GY0",5.3
MECAGLRRLSFWSIC [PSMB8-AS1],PRISMA enrichment of interactor (log2),"CHPT1, Q8WUD6",6.07
same,PRISMA enrichment of interactor (log2),"DUS3L, Q96G46",5.35
same,PRISMA enrichment of interactor (log2),"H2AFY, O75367",4.74
same,PRISMA enrichment of interactor (log2),"HAGH, Q16775",7.39
same,PRISMA enrichment of interactor (log2),"MRPL17, Q9NRX2",4.21
same,PRISMA enrichment of interactor (log2),"MRPS6, P82932",5.41
same,PRISMA enrichment of interactor (log2),"PGK1, P00558",4.91
same,PRISMA enrichment of interactor (log2),"RCN2, Q14257",5.61
same,PRISMA enrichment of interactor (log2),"RIOK2, Q9BVS4",4.65
same,PRISMA enrichment of interactor (log2),"SARDH, Q9UL12",4.47
same,PRISMA enrichment of interactor (log2),"SPCS2, Q15005",5.93
same,PRISMA enrichment of interactor (log2),"VPS52, Q8N1B4",4.12

# Two entries picked at random from those above, as already listed:
binder,measurement,setting,value
MECAGLRRLSFWSIC [PSMB8-AS1],PRISMA enrichment of interactor (log2),"SARDH, Q9UL12",4.47
MLVATGQCSRCFMFT,PRISMA enrichment of interactor (log2),"CHMP2A, O43633",4.29
